Assay results reported in patent US20240239872A1.
Results are given in words; binding and its absence hold for the method and conditions named. For some of these results: Binding calls can cover weak binding; strength is not graded here.

Experiments:
[1] = molecular target: PVY CP (coat protein of potato virus Y, expressed from pEHISTEV-PVY CP) (Potato virus Y); test: dot blot; also Western blot and ELISA
[2] = substrate: CP of PVY isolate PVY1 (Potato virus Y); test: dot-ELISA on synthesized isolate CP
[3] = substrate: CP of PVY isolate PVY2 (Potato virus Y); test: dot-ELISA on synthesized isolate CP
[4] = substrate: CP of PVY isolate PVY5 (Potato virus Y); test: dot-ELISA on synthesized isolate CP
[5] = substrate: CP of PVY isolate PVY6 (Potato virus Y); test: dot-ELISA on synthesized isolate CP
[6] = substrate: CP of chilli ringspot virus (ChiRSV) (genus Potyvirus) (Chilli ringspot virus); test: dot blot; also Western blot and ELISA
[7] = substrate: CP of potato virus A (PVA) (genus Potyvirus) (Potato virus A); test: dot blot; also Western blot and ELISA
[8] = substrate: CP of potato virus M (PVM) (genus Carlavirus) (Potato virus M); test: dot blot; also Western blot and ELISA
[9] = substrate: CP of potato virus S (PVS) (genus Carlavirus) (Potato virus S); test: dot blot; also Western blot and ELISA
[10] = substrate: CP of potato virus X (PVX) (genus Potexvirus) (Potato virus X); test: dot blot; also Western blot and ELISA
[11] = substrate: CP of tobacco vein mottling virus (TVMV) (genus Potyvirus) (Tobacco vein mottling virus); test: dot blot; also Western blot and ELISA
[12] = substrate: CP of PVY isolate PVY8 (Potato virus Y); test: dot-ELISA on synthesized isolate CP
[13] = substrate: CP of PVY isolate PVY10 (Potato virus Y); test: dot-ELISA on synthesized isolate CP
[14] = substrate: CP of PVY isolate PVY3 (Potato virus Y); test: dot-ELISA on synthesized isolate CP
[15] = substrate: CP of PVY isolate PVY4 (Potato virus Y); test: dot-ELISA on synthesized isolate CP
[16] = substrate: CP of PVY isolate PVY7 (Potato virus Y); test: dot-ELISA on synthesized isolate CP
[17] = substrate: CP of PVY isolate PVY9 (Potato virus Y); test: dot-ELISA on synthesized isolate CP
[18] = substrate: CP of PVY isolate PVY5 (Potato virus Y); test: dot-ELISA on synthesized isolate CP (refers to Embodiment 2)

B1: monoclonal antibody N1 (antibody, V domains shown)
VH: EVQLVESGGGLVQPGGSLKLSCAASGFTFSSYGMSWVRQSPDKRLEWVATINNNGGSTYYPDSVKGRFTISRDNAKNTLYLQMSSLKSEDTAVYYCARDAAFDCWGQGTTLTVSS
VL: DIVMSQSPSSLAVSAGEKVTMSCKSSQSLLNSRTRKNYLAWYQQKPGQSPKLLIYWASTRESGVPDRFTGSGSGTDFTLTISSVQAEDLAVYYCKQSYNLFTFGSGTKLEIK
With B1 the binding [1] was “binds”, the binding [2] was “no binding” and the binding [3] was “no binding”. The binding [4] was “no binding”, the binding [5] was “no binding” and the binding [6] was “no binding”. The binding [7] was “no binding”, the binding [8] was “no binding” and the binding [9] was “no binding”. The binding [10] was “no binding” and the binding [11] was “no binding”.

B2: monoclonal antibody C1 (antibody, V domains shown)
VH: EVQLQQSGAELVRPGALVKLSCKASGFNIKDYYMHWVKQRPEEGLEWIGWIDPENGNTIYDPKFQGKASITADTSSNTVRLQLSSLTSEDTAVYYCARERGAYWGQGTLVTVSA
VL: QIVLTQSPAIMSASPGEKVTMTCSASSSVSYMYWFQQKPGSSPRLLIYDTSNLASGVPVRFSGSGSGTSYSLTISRMEAEDAATFYCQQWSSYPLTFGAGTKLELK
For B2, the binding [1] was “binds”, the binding [12] was “no binding” and the binding [6] was “no binding”. The binding [7] was “no binding”, the binding [8] was “no binding” and the binding [9] was “no binding”. The binding [10] was “no binding” and the binding [11] was “no binding”.

B3: monoclonal antibody M3 (antibody, V domains shown)
VH: EVILVESGGGLVKPGGSLRLSCAASGFTFSSHPLSWVRQSPDKRLEWVASISSGGRYTYYPDSVKGRLTISRDNAKNILYLHMNSLRSEDTAMYYCARRGSTATAWFAYWGQGTLVTVSA
VL: DIALTQSPASLAVSLGQRATISCKASQSVDYDGDSYMSWYQQKPGQPPKLLIYGASNLESGIPARFSGSGSGTDFTLNIHPVEEEDAATYYCQQSNEDLPTFGGGTKLEIK
With B3 the binding [1] was “binds”, the binding [2] was “binds” and the binding [13] was “binds”. For the same binder, the binding [3] was “binds”, the binding [14] was “binds” and the binding [15] was “binds”. The binding [4] was “binds”, the binding [5] was “binds” and the binding [16] was “binds”. For the same binder, the binding [12] was “binds”, the binding [17] was “binds” and the binding [6] was “no binding”. The binding [7] was “no binding”, the binding [8] was “no binding” and the binding [9] was “no binding”. For the same binder, the binding [10] was “no binding”, the binding [11] was “no binding” and the binding [18] was “binds”.
